For part of these data: A weaker result is weaker than the reference pair of the same experiment. For part of these data: For at least one entry, the source does not settle the construct or the ends of the probe. For part of these data: At least one result comes from cells or an extract, where the contact may be indirect.

Sequences of proteins named here, by UniProt entry; tags and fusion partners are left off. A change or cut given only in a name is not applied to a line headed by its entry.
UniProt P15976: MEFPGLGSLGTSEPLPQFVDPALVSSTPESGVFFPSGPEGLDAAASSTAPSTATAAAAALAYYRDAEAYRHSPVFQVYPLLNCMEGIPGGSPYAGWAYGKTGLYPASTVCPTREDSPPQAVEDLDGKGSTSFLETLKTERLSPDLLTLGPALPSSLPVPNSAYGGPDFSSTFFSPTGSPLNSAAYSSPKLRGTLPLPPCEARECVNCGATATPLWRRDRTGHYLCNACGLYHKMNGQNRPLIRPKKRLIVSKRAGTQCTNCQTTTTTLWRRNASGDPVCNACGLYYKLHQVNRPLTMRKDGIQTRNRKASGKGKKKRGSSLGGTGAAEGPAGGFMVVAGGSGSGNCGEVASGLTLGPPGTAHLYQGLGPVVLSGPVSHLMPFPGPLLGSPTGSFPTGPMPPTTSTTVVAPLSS

This is an account of results in US20250381241.

Data set [1] addresses RIOK2 (rhRIOK2, full length) (Homo sapiens) (UniProt Q9BVS4). Nature of the data set: EMSA. The conditions noted are these: partial but significant loss vs WT, gene of duplex shown not given, purified recombinant protein, protein details: GST, Abcam.
Data set [2] addresses HA-RIOK2 DBM (DNA-binding mutant) N50A,K51A,R54A,E55A,K58A,H59A,K60A (Homo sapiens) (UniProt Q9BVS4). Nature of the data set: binding assay. The settings on record: ChIP; significantly compromised; protein in cells; protein details: N-terminal HA.
The target of data set [3] is HA-RIOK2 NTE (wHTH domain) (Homo sapiens) (UniProt Q9BVS4). Nature of the data set: binding assay. The conditions noted are these: ChIP; more robust than WT; protein in cells; protein details: N-terminal HA.
For data set [4], the target named is HA-RIOK2 WT (Homo sapiens) (UniProt Q9BVS4). Nature of the data set: binding assay. The settings on record: anti-HA ChIP; protein in cells; protein details: N-terminal HA.
The target of data set [5] is HA-RIOK2 dTAD1 del14-29 (Homo sapiens) (UniProt Q9BVS4). Nature of the data set: binding assay. The settings on record: ChIP; comparable to WT; protein in cells; protein details: N-terminal HA.
Data set [6] concerns the target HA-RIOK2 dTAD2 del77-90 (Homo sapiens) (UniProt Q9BVS4). Kind of data set: binding assay. The settings on record: ChIP; comparable to WT; protein in cells; protein details: N-terminal HA.
Data set [7] addresses RIOK2 (endogenous) (Homo sapiens) (UniProt Q9BVS4). Nature of the data set: binding assay. The conditions noted are these: ChIP-qPCR, mono- and polyclonal antibodies; protein in cells. In general terms: In qPCR the cycle at which signal appears reflects the starting amount.
The target of data set [8] is HA-RIOK2 WT (Homo sapiens) (UniProt Q9BVS4). Nature of the data set: activity in cells. The conditions noted are these: luciferase, protein in cells, protein details: N-terminal HA.
In data set [9] the target is GATA1 (UniProt P15976). Nature of the data set: binding assay. The settings on record: ChIP with two monoclonal antibodies; protein in cells.
Data set [10] has as its target GATA1 (UniProt P15976). Nature of the data set: activity in cells. The settings on record: luciferase reporter, HEK293; protein in cells. For orientation: A reporter such as luciferase makes a cellular process visible.

With “CCGGGCGCCGCCTTTTGCGCCCTGAGGCCC (double strand) [RUNX3-Mutant duplex]”, the binding result in data set [1] (variant of RUNX3-WT duplex) is “binds more weakly”.

For “ACACACCTGTAGTTTTAGCTACTCAGGAGG (double strand) [GATA1-Mutant duplex]”, in data set [1] (variant of GATA1-WT duplex), the binding result is on record as “binds more weakly”.

Regarding “GCCTTCCTTTCGTTTTGAGCCTTGGGCTTTCCTCCCACCCGGGACTGGTGCTCTTTCTCGCCGGATCTGGGCTGGGGCTCCGTGGCGTGCGGGACACCTCGTGGTGGGACTTTGGGGGGTGTCAGGCGCTGGCGGCACGCCTCACTCCCCCTTCCTCGCGCAGGGCCGTTGCCGTCTGCACCCAGACCCTGAGCCGCCGCCGCCGGCCATGGAGGTGGCGCCCGAGCAGCCGCGCTGGATGGCGCACCCGGCCGTGCTGAATGCGCAGCACCCCGACTCACACCACCCGGGCCTGGCGCACAACTACATGGAACCCGCGCAGCTGCTGCCTCCAGACGAGGTGGACGTCTTCTTCAATCACCTCGACTCGCAGGGCAACCCCTACTATGCCAACCCCGCTCACGCGCGGGCGCGCGTCTCCTACAGCCCCGCGCACG (double strand) [GATA2 promoter]”, the binding result in data set [2] is listed as “binds more weakly”; in data set [3], “binds”; in [4], “binds”; in [5], “binds”; in data set [6], “binds”; in data set [7], “binds”. For the same sequence, in [8] (repression), the “activity on this sequence” value is “active”.

Regarding “AGAGACTTCCTGTATGTAGCGCAAGAGATTTATGCAAACGGGTTGGGGCGGTGATGTCACCCCAAGGGGACTATCTCCCAGCGGCAGGCCCTTCGATAAAATCAGGAACTTGTGCTGGCCCTGCAATGTCAAGGGAGGGGGCTCACCCAGGGCTCCTGTAGCTCAGGGGGCAGGCCTGAGCCCTGCACCCGCCCCACGACCGTCCAGCCCCTGACGGGGCACCCCATCCTGAGGGGCTCTGCATTGGCCCCCACCGAGGCAGGGGATCTGACCGACTCGGAGCCCGGCTGGATGTTACAGGCGTGCAAAATGGAAGGGTTTCCCCTCGTCCCCCCT (double strand) [SPI1 promoter]”, the binding result in data set [2] is “binds more weakly”; in [3] it was “binds”; in data set [4], “binds”; in [7] it was “binds”. Also, the “activity on this sequence” value in data set [8] (repression) is “active”.

Take “CTAGCCAGGCCTGGTGGCACACACCTGTAGTCCCAGCTACTCAGGAGGCTGAGGCAGGAGGATCACTGCCGGGAGGCAGTGGTTGCAGTGAGCCGAGATCGTGCCACTGCACTCCAGCCTGGCAACAGAGGAGACCCTGCCTCAAAAAAAAGTGTGTGTGGATGGGGGGGGAAGGATTTCTGTGTCTGAGGACCCCTTCTGTCCTCGCAGGTTAATCCCCAGAGGCTCCATGGAGTTCCCTGGCCTGGGGTCCCTGGGGACCTCAGAGCCCCTCCCCCAGTTTGTGGATCCTGCTCTGGTGTCCTCCACACCAGAATCAGGGGTTTTCTTCCCCTCTGGGCCTGAGGGCTTGGATGCAGCAGCTTCCTCCACTGCCCCGAGCACAGCCACCGCTGCAGCTGCGGCACTGGCCTACTACAGGGACGCTGAGGCCTACAGACACTCCCCAG (double strand) [GATA1 promoter]”: the binding result is on record as “binds more weakly” in [2]; “binds” in data set [3]; “binds” in data set [4]; “binds” in data set [5]; “binds” in [6]; “binds” in data set [7]. Besides, the “activity on this sequence” value in data set [8] (activation) is “active”.

Consider “AGGCAGTGCCTTGGCGAAGCTGTCCGCGGTCCCTGCGGCGCAGCCGGAGCGCACGGGCCCAAGAAGAAGTGGGGTTGGACCCCGCCCCGCGGGCCCCGGGGGTACTAACCCCGCGCGGGCGGCCGCGGCCCCGCCACTTGATTCTGGAGGATTTGTTCTGGGGCTGCGGCCGCGGAGTCGGGGCGGCCGCGGGCGAGCTTCGGGGCGGGAGGCGGCGGCAGCGGCACAGCCCCGCGCGGGCCCCGCCGCGGCCCAGGCAGCCGGGACAGCCACGAGGGGCGGCCGCACGCGGGGCCGCGCGCCGAGGATGCGGGACTAGCCGGGCAGGCTGCGGGCGGCCGTCGGGCCAGCGAGGCCTCGCAGCGGGCGGGCCCTGGCGAGTAGTGGCCGGGCGCCGCCCCCTGCGCCCTGAGGCCCGGGCCCCGCCGCTTCTGCTTTCCCGCTTCTCGCGGCAGCGGCGGCCGAGGAGGCGCCCGCGCCGGCCGCCCCCGGGGGAAGCCGCGCCGTCTCCGCCTGCCCGGCGCCCTGACGGCCGCTGTTATGCGTATTCCCGTAGACCCAAGCACCAGCCGCCGCTTCACACCTCCCTCCCCGGCCTTCCCCTGCGGCGGCGGCGGCGGCAAGATGGGCGAGAACAGCGGCGCGCTGAGCGCGCAGGCGGCCGTGGGGCCCGGAGGGCGCGCCCGGCCCGAGGTGCGCTCGATGGTGGACGTGCTGGCGGACCACGCAGGCGAGCTCGTGCGCACCGACAGCCCCAACTTCCTCTGCTCCGTGCTGCCCTCGCACTGGCGCTGCAACAAGACGCTGCCCGTCGCCTTCAAG (double strand) [RUNX3 promoter]”, for which the binding result in data set [2] is on record as “binds more weakly”; in data set [3], “binds”; in [4] it was “binds”; in [5], “binds”; in data set [6] it was “binds”; in data set [7], “binds”. Moreover, the “activity on this sequence” value in [8] (repression) was “active”.

With “CTGCTGCAGGGCTGAGACCCTGGGAGGTCCCAACCCAGGCAAATTGAACGCCAGGCTAATTTGAAGACCCAACTCCCAGCCCTCCCCTTCACCGGAGGACAGAGCTCTAGCTGGCCTGGGCCCCCACCTGATAGCAGCCTCCAACGTCTGGGGTGTCTGATAATCACAGCCTCAGAGTTCACGAGGCAGCCGAGGAAGAGGAGGCTTGAGGCCCAGGGTGGGCACCAGCCAGCCATGGCCACAGCCGAGACCGCCTTGCCCTCCATCAGCACACTGACCGCCCTGGGCCCCTTCCCGGACACACAGGATGACTTCCTCAAG (double strand) [KLF1 promoter]”, the binding result in data set [4], in [5], in data set [6] and in [7] was “binds” in each case. Besides, the “activity on this sequence” value in data set [8] (activation) is given as “active”.

Turning to “CACGTGTCACCTTAAACTCCCACCCCAACCAGCGCAGGCGCACTTCGAAGCCTCCTAGACCAACCTAAGAGAAGTACTGAGCAAGCGCATGAGTTCCATTAACCACGCCCTCCGGAGCTGCCGGAGCAGGCGCAATTAGGAGTAGAGGGCGTGCTTGTGTGATTACAGTCCACTTTACCTTTAACAGATTTGGTTGTCTGGACTCTAGCTCAGGTTCTTTTACCCCTGTCTTGTTGGAAGTCACTTTGCCTAGAGTAGAAGTTGTTTGCGGGAAAAATTTGCTCCTCCCATTAAGTAACCACTTTGCTCTCTGAGGCGGAACGTGTCATTGAGGCAGCAAGTCCTGACAGATATGGAAAAAAAAAGGCACATTGTAGAGAATATCTACACTCCGCCAACTCAGTCACAACGCAAAAATTACACAAAAATAAAACGTTCACTTGTTACATACTATGTGTTTCATAAGACATACAAGTAGTTTTATTTTCCTATATCAATGAGAACAGCACTTCTAACTATTAACAAGGACCTATACTAAGACGCAGCGCGTGCGCGAGCCATCTGGCGCTGTAAAGCGCTTAGAGGCTGGAATAACGACCTGCCTTACGCTTTGCGGCTGTCGTCGGAGAGGCATCTGGGTTCGGACTGGGGCCGCCATGGGGAAAGTGAATGTGGCCAAGTTGCGTTACATGAGCCGAGATGACTTCAGGGTCTTGACCGCGGTAAGAAACCCGCCGTTCCTGTTCTCCCTTCCCCTTAACACTGTGTGACCTCTTCCTGTTCCTGCAAGTTTTCTGGGATCTGAGCAGGCACACTCTGGGACCCGGGACGTGGCAGAAGCTGGGAATGGAGAAGAGAGCATTCAGAAAGTCGGATTTTTAAAAAGGTTTTGTTTGGGAGCTTACCTTCCCCCAGATAGAGCAAAGGTCCCGTCTTCTAATAATTGTTTTCTTTTCTGCTGCTATTCGCTTTGCGCTGAAGAGAAACGCTTGCATCTCTGTGGCCTGGAAACTTCTCTGATCCTGAGCTTCCGACCAGCTGTGAAAG (double strand) [RIOK2 promoter]”, in the data set with GATA1 [9], the binding result is given as “binds”. Moreover, the “activity on this sequence” value with GATA1 [10] is listed as “active”.

Turning to “AAGGGGACTATCTTTTAGCGGCAGGCCCTT (double strand) [SPI1-Mutant duplex]”, the binding result in data set [1] (variant of SPI1-WT duplex) was “binds more weakly”.
